Measured values published in patent US20220242905A1 (UNIVERSITE DE MONTPELLIER, priority 2018, published 2022).

Legend:
[1] = general procedure: Fmoc solid-phase peptide synthesis; ChemMatrix Rink Amide resin loaded at 0.49 mmol/g; DIC/Oxyma Pure; details: whole synthesis, scale 0.7 mmol
[2] = general procedure: Fmoc solid-phase peptide synthesis; ChemMatrix Rink Amide resin; DIC/Oxyma Pure; details: whole synthesis, scale 0.15 mmol

**Q.** With “PEPTIDE1{[ac].[ATC-Lys-Me].[ATC-Ala-C4N].[ATC-Ala-Me].[ATC-Lys-Me].[ATC-Ala-C4N].[ATC-Ala-Me].[am]}$$$$V2.0” as the substance, how does the isolated mass [1] read?
**A.** 45 mg

**Q.** And the isolated yield [1]?
**A.** 12%

**Q.** What does the source list for “PEPTIDE1{[ac].[ATC-Lys-Me].[ATC-Ala-Me].[ATC-Ala-C4N].[ATC-Ala-Me].[ATC-Ala-C4N].[ATC-Lys-Me].[ATC-Ala-C4N].[ATC-Lys-Me].[ATC-Ala-Me].[ATC-Ala-Me].[ATC-Ala-C4N].[ATC-Lys-Me].[am]}$$$$V2.0”?
**A.** isolated mass [2]: 92 mg; isolated yield [2]: 18%

HELM strings list residues between dots; [ac] is acetyl, [am] amide, other brackets name non-standard units.
